# Experimental data from the M2OR odorant receptor database.
# Chains of the proteins cited; added tags and fusions are not shown. Where a name states a change or a piece, a line headed by the entry shows the natural chain unless it says otherwise. A line that says so, or that is headed by a name, gives the form on record, which may keep a tag or linker.
# UniProt Q8NH37: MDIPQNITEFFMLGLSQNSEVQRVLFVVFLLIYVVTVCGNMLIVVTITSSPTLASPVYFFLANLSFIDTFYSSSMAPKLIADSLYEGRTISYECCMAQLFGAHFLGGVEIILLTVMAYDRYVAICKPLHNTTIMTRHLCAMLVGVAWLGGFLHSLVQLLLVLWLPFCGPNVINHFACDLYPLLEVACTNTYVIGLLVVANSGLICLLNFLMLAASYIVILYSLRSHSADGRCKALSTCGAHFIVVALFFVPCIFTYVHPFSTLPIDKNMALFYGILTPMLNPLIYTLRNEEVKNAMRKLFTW
# UniProt Q8NH72: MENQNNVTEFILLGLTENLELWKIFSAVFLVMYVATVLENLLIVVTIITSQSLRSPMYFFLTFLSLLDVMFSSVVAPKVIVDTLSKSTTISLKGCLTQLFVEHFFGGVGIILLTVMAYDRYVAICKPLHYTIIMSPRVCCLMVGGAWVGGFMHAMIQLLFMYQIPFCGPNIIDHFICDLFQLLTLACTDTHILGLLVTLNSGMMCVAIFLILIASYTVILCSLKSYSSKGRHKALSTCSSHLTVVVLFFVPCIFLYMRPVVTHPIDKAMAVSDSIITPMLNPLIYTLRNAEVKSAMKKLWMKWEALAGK
# UniProt Q8NGI6: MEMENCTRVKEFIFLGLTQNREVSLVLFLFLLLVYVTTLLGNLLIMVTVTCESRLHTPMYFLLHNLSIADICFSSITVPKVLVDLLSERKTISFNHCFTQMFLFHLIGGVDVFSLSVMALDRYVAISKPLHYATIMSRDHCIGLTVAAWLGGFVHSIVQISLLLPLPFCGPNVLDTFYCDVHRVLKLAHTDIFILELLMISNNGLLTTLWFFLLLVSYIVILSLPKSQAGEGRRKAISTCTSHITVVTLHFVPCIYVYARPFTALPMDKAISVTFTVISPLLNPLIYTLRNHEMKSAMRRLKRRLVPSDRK
# UniProt Q8NGI4: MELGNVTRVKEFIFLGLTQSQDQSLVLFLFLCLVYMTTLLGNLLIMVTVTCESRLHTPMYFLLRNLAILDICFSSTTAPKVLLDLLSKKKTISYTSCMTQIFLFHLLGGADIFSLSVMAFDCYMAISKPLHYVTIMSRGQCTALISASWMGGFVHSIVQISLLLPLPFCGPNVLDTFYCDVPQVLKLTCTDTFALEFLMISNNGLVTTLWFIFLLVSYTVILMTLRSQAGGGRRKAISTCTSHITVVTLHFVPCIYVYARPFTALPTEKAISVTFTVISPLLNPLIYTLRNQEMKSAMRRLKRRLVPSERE
# UniProt Q8NGN0: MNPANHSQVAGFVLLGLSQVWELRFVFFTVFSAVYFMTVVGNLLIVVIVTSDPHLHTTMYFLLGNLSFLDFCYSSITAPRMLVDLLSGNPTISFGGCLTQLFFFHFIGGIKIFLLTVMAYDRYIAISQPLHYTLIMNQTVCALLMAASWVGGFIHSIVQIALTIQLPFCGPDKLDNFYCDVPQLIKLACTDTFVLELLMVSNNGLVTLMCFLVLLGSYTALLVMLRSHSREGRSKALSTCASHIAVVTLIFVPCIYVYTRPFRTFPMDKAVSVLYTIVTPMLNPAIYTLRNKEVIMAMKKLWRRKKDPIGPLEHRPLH
# OR4D2, as listed by the source: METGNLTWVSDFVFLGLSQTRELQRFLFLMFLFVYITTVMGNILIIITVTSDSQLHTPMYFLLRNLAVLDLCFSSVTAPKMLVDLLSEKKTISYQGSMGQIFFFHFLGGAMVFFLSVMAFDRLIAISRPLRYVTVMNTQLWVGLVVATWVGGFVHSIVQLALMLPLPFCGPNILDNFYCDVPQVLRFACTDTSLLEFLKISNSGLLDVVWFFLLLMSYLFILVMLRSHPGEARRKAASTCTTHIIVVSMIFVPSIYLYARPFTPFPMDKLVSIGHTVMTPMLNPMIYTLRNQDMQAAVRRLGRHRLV
# OR4C3, as listed by the source: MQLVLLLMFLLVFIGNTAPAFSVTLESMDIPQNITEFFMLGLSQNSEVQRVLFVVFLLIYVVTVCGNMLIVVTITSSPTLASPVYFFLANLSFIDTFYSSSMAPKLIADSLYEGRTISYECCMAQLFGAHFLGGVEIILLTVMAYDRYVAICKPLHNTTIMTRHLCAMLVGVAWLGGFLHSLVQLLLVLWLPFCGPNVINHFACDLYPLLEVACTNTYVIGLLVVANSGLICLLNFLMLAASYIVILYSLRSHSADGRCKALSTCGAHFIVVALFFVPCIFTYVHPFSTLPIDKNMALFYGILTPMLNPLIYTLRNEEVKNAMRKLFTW
# OR4D1, as listed by the source: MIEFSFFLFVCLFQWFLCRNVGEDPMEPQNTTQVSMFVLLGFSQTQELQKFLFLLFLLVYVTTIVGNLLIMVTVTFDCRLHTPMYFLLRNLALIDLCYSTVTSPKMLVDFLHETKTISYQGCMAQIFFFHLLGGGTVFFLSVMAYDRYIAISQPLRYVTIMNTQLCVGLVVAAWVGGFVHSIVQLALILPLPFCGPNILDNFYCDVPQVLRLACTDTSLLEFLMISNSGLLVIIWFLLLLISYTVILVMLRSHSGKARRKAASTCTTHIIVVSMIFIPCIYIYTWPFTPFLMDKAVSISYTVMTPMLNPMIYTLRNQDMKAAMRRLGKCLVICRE
# OR4CC, as listed by the source: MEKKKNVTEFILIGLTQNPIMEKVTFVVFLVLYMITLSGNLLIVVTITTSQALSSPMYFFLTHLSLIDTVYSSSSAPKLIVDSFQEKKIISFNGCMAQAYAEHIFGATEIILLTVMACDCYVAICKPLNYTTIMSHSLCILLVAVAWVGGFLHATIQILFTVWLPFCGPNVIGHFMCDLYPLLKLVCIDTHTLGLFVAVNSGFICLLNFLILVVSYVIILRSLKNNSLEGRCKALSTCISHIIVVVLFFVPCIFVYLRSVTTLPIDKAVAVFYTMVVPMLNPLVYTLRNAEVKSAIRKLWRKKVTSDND
# OR4CF, as listed by the source: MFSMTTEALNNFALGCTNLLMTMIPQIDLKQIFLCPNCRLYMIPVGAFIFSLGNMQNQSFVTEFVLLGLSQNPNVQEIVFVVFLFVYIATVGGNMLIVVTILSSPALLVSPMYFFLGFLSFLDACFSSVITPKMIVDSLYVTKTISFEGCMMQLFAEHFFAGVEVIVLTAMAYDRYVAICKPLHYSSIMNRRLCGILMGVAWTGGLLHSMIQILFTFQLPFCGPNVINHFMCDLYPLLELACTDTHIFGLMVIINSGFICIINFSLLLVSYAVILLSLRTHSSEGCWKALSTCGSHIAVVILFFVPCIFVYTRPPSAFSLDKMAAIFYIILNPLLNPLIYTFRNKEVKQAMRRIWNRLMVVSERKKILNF
# OR4C5, as listed by the source: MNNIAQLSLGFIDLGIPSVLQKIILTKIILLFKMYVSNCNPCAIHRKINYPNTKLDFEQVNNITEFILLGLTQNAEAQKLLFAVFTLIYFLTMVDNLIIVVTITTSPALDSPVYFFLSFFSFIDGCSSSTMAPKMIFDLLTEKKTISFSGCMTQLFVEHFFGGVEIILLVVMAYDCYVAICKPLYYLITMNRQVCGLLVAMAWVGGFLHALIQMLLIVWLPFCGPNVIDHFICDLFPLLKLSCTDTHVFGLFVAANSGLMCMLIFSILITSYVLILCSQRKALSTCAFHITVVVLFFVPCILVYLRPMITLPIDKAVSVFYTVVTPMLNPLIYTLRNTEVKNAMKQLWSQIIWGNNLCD
# The entries are a selection whose mix differs from that of the whole data set. The calls were merged from several studies; some rest on single wells. Some of the results follow.
# Experiments:
# Details in all cases: stereoisomer not certain
# OR4C3 (Homo sapiens) = OR4C3 (Homo sapiens) (UniProt Q8NH37)
# Summary of the method: (§1)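 Each receptor–molecule pair is labelled responsive or non-responsive (inactive) according to whether the original authors judged the measured signal statistically different from baseline. The data were taken from the main text and supplementary material of published papers and checked for typos and inconsistencies. Assay methods differed by source, with transient luciferase assays in mammalian cell lines being common.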
# OR4C3 = test system: OR4C3
# Summary of the method: as §1
# OR4C5 = test system: OR4C5
# Summary of the method: as §1
# OR4C6 (Homo sapiens) = OR4C6 (Homo sapiens) (UniProt Q8NH72)
# Summary of the method: as §1
# OR4CC = test system: OR4CC
# Summary of the method: as §1
# OR4CF = test system: OR4CF
# Summary of the method: as §1
# OR4CG = test system: T1, OR4CG
# T1 sequence (whole entry): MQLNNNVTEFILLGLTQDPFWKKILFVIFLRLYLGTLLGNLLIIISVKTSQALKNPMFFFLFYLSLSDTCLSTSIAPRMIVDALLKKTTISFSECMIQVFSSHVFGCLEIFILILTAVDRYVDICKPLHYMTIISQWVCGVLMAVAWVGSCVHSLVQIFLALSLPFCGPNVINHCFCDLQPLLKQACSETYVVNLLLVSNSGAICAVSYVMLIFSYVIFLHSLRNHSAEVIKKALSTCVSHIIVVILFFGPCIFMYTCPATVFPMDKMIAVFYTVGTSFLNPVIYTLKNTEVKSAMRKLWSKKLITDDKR
# Summary of the method: as §1
# OR4D10 (Homo sapiens) = OR4D10 (Homo sapiens) (UniProt Q8NGI6)
# Summary of the method: as §1
# OR4D11 (Homo sapiens) = OR4D11 (Homo sapiens) (UniProt Q8NGI4)
# Summary of the method: as §1
# OR4D1 = test system: OR4D1
# Summary of the method: as §1
# OR4D2 = test system: OR4D2
# Summary of the method: as §1
# OR4D5 (Homo sapiens) = OR4D5 (Homo sapiens) (UniProt Q8NGN0)
# Summary of the method: as §1
# 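Further: active if original authors judged signal statistically different from baseline.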
SMILES,odorant receptor agonist call (OR4C3 (Homo sapiens)),odorant receptor agonist call (OR4C3),odorant receptor agonist call (OR4C5),odorant receptor agonist call (OR4C6 (Homo sapiens)),odorant receptor agonist call (OR4CC),odorant receptor agonist call (OR4CF),odorant receptor agonist call (OR4CG),odorant receptor agonist call (OR4D10 (Homo sapiens)),odorant receptor agonist call (OR4D11 (Homo sapiens)),odorant receptor agonist call (OR4D1),odorant receptor agonist call (OR4D2),odorant receptor agonist call (OR4D5 (Homo sapiens))
CCC1(O)C2(C)CCC(C2)C1(C)C (stereo not given),inactive,inactive,inactive,inactive,inactive,inactive,inactive,inactive,inactive,inactive,inactive,inactive
O=C1CCCCC1,inactive,inactive,inactive,,inactive,inactive,,inactive,inactive,inactive,inactive,
CC=Cc1ccc(O)c(OC)c1,inactive,inactive,inactive,active,active,,active,inactive,inactive,inactive,inactive,active
C=C(C)C1CCC2=CC(=O)CC(C)C2(C)C1 (stereo not given),,,,,,,inactive,,,,,active
CCCCCCCCOC(C)=O,inactive,inactive,inactive,inactive,inactive,inactive,inactive,inactive,inactive,inactive,inactive,inactive
CCCCCCCC=CC=O,inactive,inactive,inactive,inactive,inactive,inactive,active,inactive,inactive,,inactive,inactive
CC1COCc2cc3c(cc21)C(C)(C)C(C)C3(C)C (stereo not given),active,active,active,active,active,,inactive,inactive,inactive,active,inactive,inactive
CCCCCOC(C)=O,inactive,inactive,inactive,,inactive,inactive,inactive,inactive,inactive,inactive,inactive,inactive
CCCCCCCC=O,inactive,inactive,inactive,inactive,inactive,inactive,inactive,inactive,inactive,inactive,inactive,inactive
CCCCCC(C)=O,inactive,active,inactive,,inactive,inactive,,inactive,inactive,inactive,inactive,
CCCCCCCCCC=O,inactive,inactive,inactive,inactive,inactive,inactive,inactive,inactive,inactive,inactive,inactive,inactive
CC12CCC(CC1)C(C)(C)O2,inactive,inactive,inactive,inactive,inactive,inactive,inactive,inactive,inactive,inactive,inactive,inactive
CCC=CCCO,inactive,inactive,inactive,inactive,inactive,inactive,inactive,inactive,inactive,inactive,inactive,inactive
CC(=O)c1ccccc1,inactive,inactive,inactive,,inactive,inactive,,inactive,inactive,inactive,inactive,

# Entries of single compounds as entered above. Order of values: odorant receptor agonist call (OR4C3 (Homo sapiens)) | odorant receptor agonist call (OR4C3) | odorant receptor agonist call (OR4C5) | odorant receptor agonist call (OR4C6 (Homo sapiens)) | odorant receptor agonist call (OR4CC) | odorant receptor agonist call (OR4CF) | odorant receptor agonist call (OR4CG) | odorant receptor agonist call (OR4D10 (Homo sapiens)) | odorant receptor agonist call (OR4D11 (Homo sapiens)) | odorant receptor agonist call (OR4D1) | odorant receptor agonist call (OR4D2) | odorant receptor agonist call (OR4D5 (Homo sapiens))
# CCCCCCCCCC=O is listed with inactive | inactive | inactive | inactive | inactive | inactive | inactive | inactive | inactive | inactive | inactive | inactive
# CCCCCCCC=O is listed with inactive | inactive | inactive | inactive | inactive | inactive | inactive | inactive | inactive | inactive | inactive | inactive
